PubChem BioAssay AID1259254, NCATS | 2017
Screen: 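Gene knock-downs that lead to re-replication, shown by excess G2 DNA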 (primary screen). Cells: human HCT116 colorectal cancer cells. Reagent: single siRNA against human genes. Time to read-out: 3 days. Read-out: 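Nuclei stained with Hoechst and imaged; cell-cycle phase assigned by DNA content; G2 share scaled per plate, non-targeting siRNA 0%, GMNN siRNA 100%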. Scale: G2 robust z-score and G2 cells, % of GMNN control: higher = more G2 cells, more excess DNA replication. Active means: 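An siRNA counts as active if its G2 robust z-score lies at least 5 MADs above the screen median; here such calls match roughly 38% of GMNN control or more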.
In all, the deposit lists about 59,000 reagents; below is an unselected part. Over the whole deposit, about 1,550 (2.6%) are marked active. 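G2 share is only a proxy for re-replication; each gene was hit by three separate siRNAs, and active genes were retested.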 A number with no mark means an inactive call. Reagents against one gene are numbered here. Further read-outs or replicates are left out here. Reagent sequences are not shown. The record does not give: the amount of reagent.

Knock-down of CXADR #1 resulted in: G2 robust z-score -0.609; G2 cells, % of GMNN control -1.32.
For CXADR #2 the deposit lists G2 robust z-score 1.09; G2 cells, % of GMNN control 10.7.
For CXADR #3, the values are G2 robust z-score -0.323; G2 cells, % of GMNN control 0.697.
Depletion of NCOA6 #1 gave: G2 robust z-score -0.835; G2 cells, % of GMNN control -2.91.
Knock-down of NCOA6 #2 came out at: G2 robust z-score 6.12 (active); G2 cells, % of GMNN control 46.1.
NCOA6 #3 gave G2 robust z-score -0.769; G2 cells, % of GMNN control -2.45.
ATG10 #1 scored G2 robust z-score 12.9 (active); G2 cells, % of GMNN control 94.
Against ATG10 #2, the entry reads G2 robust z-score -0.284; G2 cells, % of GMNN control 0.971.
ATG10 #3 gave G2 robust z-score 0.133; G2 cells, % of GMNN control 3.9.
After knock-down of CLDN22 #1, the record shows G2 robust z-score -0.598; G2 cells, % of GMNN control -1.24.
CLDN22 #2 showed G2 robust z-score -0.672; G2 cells, % of GMNN control -1.76.
Depletion of CLDN22 #3 came out at: G2 robust z-score -0.23; G2 cells, % of GMNN control 1.35.
After knock-down of CRISP3 #1 the results were G2 robust z-score 2.73; G2 cells, % of GMNN control 22.2.
With knock-down of CRISP3 #2, the record shows G2 robust z-score -0.509; G2 cells, % of GMNN control -0.616.
For CRISP3 #3 the deposit lists G2 robust z-score -0.00381; G2 cells, % of GMNN control 2.94.
Depletion of ADAP1 #1 came out at: G2 robust z-score 0.128; G2 cells, % of GMNN control 3.87.
Depletion of ADAP1 #2 came out at: G2 robust z-score -0.111; G2 cells, % of GMNN control 2.19.
For ADAP1 #3, the values are G2 robust z-score -0.995; G2 cells, % of GMNN control -4.04.
Depletion of ITGAX #1 came out at: G2 robust z-score 3.08; G2 cells, % of GMNN control 24.6.
With knock-down of ITGAX #2, the screen gave G2 robust z-score 2.29; G2 cells, % of GMNN control 19.1.
Knock-down of ITGAX #3 resulted in: G2 robust z-score -0.592; G2 cells, % of GMNN control -1.2.
For IQSEC3P3 #1, the values are G2 robust z-score -0.597; G2 cells, % of GMNN control -1.23.
After knock-down of IQSEC3P3 #2 the results were G2 robust z-score 3.27; G2 cells, % of GMNN control 26.
IQSEC3P3 #3 showed G2 robust z-score -0.36; G2 cells, % of GMNN control 0.437.
